At least one compound was matched to its structure with a doubt left.
Assays:
HAD-1 rats = type: in vivo, rat; conditions: i.p.; βCCt 5-30 mg/kg (15 mg/kg elsewhere in the source), chlordiazepoxide 2.5, 5 mg/kg
Protocol: (§1) Rats were placed in the middle of the automated plus maze (Acuscan Electronics, Columbus, Ohio, USA) with two walled and open arms under dim illumination (for details see June et al., 1998b).
(§2) βCCt (5-60 mg/kg i.p.) and chlordiazepoxide (2.5, 5, 10 mg/kg i.p.) were administered 15 and 30 min, respectively, prior to being placed in the plus maze or open field. EtOH (1.25 g/kg) was given 5 min prior to placing the rats in the open field. When βCCt was given in combination with either chlordiazepoxide or EtOH, it was given 10 min prior to chlordiazepoxide and EtOH. As noted above, βCCt was administered in Tween-20 solution, while all other drugs were mixed in sterile saline. Animals were tested between 9am-3 pm.
(§3) HAD-1 asnd P rats were randomly assigned to each of the […] drug treatment groups (Veh, 5, 15, 30, 60 mg/kg). A between group ANOVA with drug treatment as the independent factor was conducted for HAD-1 (n=8-12 per treatment group) [total N=42] and P (n=7-12 per treatment group) [total N=42] rats on the plus-maze test.

P rats = type: in vivo, rat; conditions: i.p.; βCCt 5-60 mg/kg (15 mg/kg elsewhere in the source), chlordiazepoxide 2.5, 5 mg/kg
Protocol: as §1, §2, §3

[1] = system: recombinant GABAA α1 through α5 (β3γ2) receptors; assay: Xenopus oocyte expression assay, result stated across several subtypes; type: cell-based, rat; conditions: saturating 1-10 μM with EC50 GABA

Structure (SMILES) | percentage of time spent on the open arms (HAD-1 rats) | percentage of time spent on the open arms (P rats) | potentiation of GABAergic activity across the A1 to A4 subtypes [1]
CNC1=Nc2ccc(Cl)cc2C(c2ccccc2)=[N+]([O-])C1 [Chlordiazepoxide, reference compound] | marked, and comparable anxiolytic-like activity | marked, and comparable anxiolytic-like activity | –
CCOC(=O)c1ncc2[nH]c3cccc(OC(C)C)c3c2c1C [ZK 93426] | – | – | 137±8% to 148±11

Source: US20030176456A1, “Methods for reducing alcohol cravings in chronic alcoholics” (priority 2001, published 2003)
